Experimental data: PubChem BioAssay AID1347075 (National Center for Advancing Translational Sciences (NCATS), 2019)
In all, about 400,000 compounds went through this assay and about 5,500 (1.4%) were called active. The inconclusive results got no clear call from the source; some entries with a clear call stand among them for comparison. Calls follow the shape of the dose curve; as a rule, active = well fitted cell-killing curve with a large enough effect; inconclusive = small, poorly fitted or top-dose-only effect, or effect the other way; inactive = flat fitted curve, though single readings scatter. Where the call is inconclusive, the potency comes from a doubtful curve fit.

assay: qHTS assay for MDR1-selective chemotherapeutics: Primary screen using the parental adenocarcinoma cell KB-3-1; conditions: KB-3-1 viability, CellTiter-Glo ATP luminescence, 72 h; series mostly up to 46.1 µM; also: nearly all actives have a fitted effect of over 60% in size
How it was run: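 Cells are dispensed, compounds pinned in, plates held at 37 °C for 72 h, then CellTiter-Glo is added and luminescence read after 10 minutes. Cell line: parental KB-3-1 in phenol-red-free DMEM, 10% FBS.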
Potency is read from the fitted curve at half-maximal effect.

Structure (SMILES) | Potency
O=C(Nc1ccc(F)cc1)Nc1ccccc1N1CCCCC1 | inconclusive: 7.31 µM [cytotoxic, partial curve]
CC(=O)c1ccc(-c2nnc(CCC(=O)N(C)Cc3c(C)nc4ccccn34)o2)s1 | inconclusive: 16.4 µM [cytotoxic, partial curve, poor fit]
CC(=O)Oc1ccc2c3c(c(=O)oc2c1C)CCCC3 | inconclusive: 23.1 µM [cytotoxic, single point]
CC(=O)c1c(C)[nH]c(C(=O)OCC(=O)Nc2cc(Cl)ccc2[N+](=O)[O-])c1C | inactive
CCN(CC)C(=O)CN(c1cccc([N+](=O)[O-])c1)S(=O)(=O)c1ccccc1 | inconclusive: 20.6 µM [cytotoxic, single point]
O=C(Nc1ccc2ccccc2c1)Nc1nnc(-c2ccccc2)s1 | inactive
O=C(NCCc1ccc(Cl)cc1)c1ccc2nc(Cc3ccccc3)oc2c1 | inconclusive: 25.9 µM [cytotoxic, single point]
O=C(CC1SC(N2CCCC2)=NC1=O)Nc1ccc(C(=O)NCCOc2ccccc2F)cc1 (configuration not stated) | inactive
CN(CC(=O)Nc1cccc(F)c1)C(=O)/C=C/c1ccc2ccccc2n1 | inactive
O=C(NCCC1CCCCN1S(=O)(=O)c1cccs1)C(=O)Nc1ccc(F)cc1F (configuration not stated) | active: 23.1 µM
CC1(C)NC(=O)N(CCCCOc2ccc3c(c2)CCC3)C1=O | inconclusive: 29.1 µM [cytotoxic, single point]
COc1ccc2c(Sc3ccccc3)c(C(=O)NCCN(C)C)[nH]c2c1 | inconclusive: 23.1 µM [cytotoxic, single point]
COc1ccc2[nH]c3c(c2c1)CCN1C(=O)C(CC(=O)NCC24CC5CC(CC(C5)C2)C4)C[C@H](C(=O)N2CCOCC2)[C@@]31CCC1CCCC1 (some centres not stated) | inconclusive: 20.6 µM [cytotoxic, single point]
COc1ccc(C(=O)/C(=C/c2cccs2)c2nc3ccccc3o2)cc1 | inconclusive: 29.1 µM [cytotoxic, single point]
CN1CCN(C(CNC(=O)C(=O)Nc2ccc3c(c2)OCCO3)c2ccc(F)cc2)CC1 (configuration not stated) | inactive
COc1cccc(NC(=O)CN(C)C(=O)CCCc2nc3ccccc3s2)c1 | inactive
COc1ccc(NC2=C(C)C(=O)CC2)cc1 | inconclusive: 11.6 µM [cytotoxic, partial curve, poor fit]
CC(C)Oc1ccc(CNC(=O)Cc2ccc(NC(=O)N3CCSc4ncccc43)cc2)cc1 | inconclusive: 29.1 µM [cytotoxic, partial curve, poor fit]
O=C(Cc1ccc(Cl)cc1)Nc1ccc2oc(-c3ccccc3)nc2c1 | inconclusive: 16.4 µM [rising, single point]
CCN(CC)C(=O)c1sc2c(c1C)c(=O)n(-c1ccc(C)c(C)c1)c(=O)n2CC(=O)Nc1ccc(F)cc1 | inactive
CCN1C(=O)N[C@@H](c2cccc(C(F)(F)F)c2)[C@H](C(C)=O)[C@H]1C | inconclusive: 23.1 µM [cytotoxic, partial curve, poor fit]

Structure (SMILES) | Potency
Brc1ccc(Oc2ncc(CN3CCN(c4ccccc4)CC3)s2)cc1 | inconclusive: 20.6 µM [cytotoxic, single point]
Cc1cccc(C2N3CC4(C(C)C)CN2CC(C(C)C)(C3)C4=O)c1 (configuration not stated) | inactive
CC(C)(O)CC[C@H](OC(=O)c1ccccc1)[C@](C)(O)[C@H]1CC[C@@]2(O)C3=CC(=O)[C@@H]4C[C@@H](O)[C@H](O)C[C@]4(C)C3CC[C@]12C (some centres not stated) | inactive
CCOc1ccc(-c2cc3c(=O)n(CC(=O)Nc4c(C)cccc4C)ccn3n2)cc1 | inactive
Cc1ccc(C)c(OCCOCCn2c(-c3ccc(Br)cc3)nc3ccccc3c2=O)c1C | inactive
CC(=NO)C1CCC2C3CCC4=CC(=NO)CCC4(C)C3C(O)CC12C (configuration not stated) | inconclusive: 29.1 µM [cytotoxic, single point]
O=C(Nc1cccc(S(=O)(=O)N2CCCC2)c1)c1ccc2c(=O)n3c(nc2c1)CCCCC3 | inconclusive: 29.1 µM [cytotoxic, single point]
CC(=O)N1CCCc2cc(S(=O)(=O)N(C)CC(=O)Nc3ccc(F)c(Cl)c3)ccc21 | inconclusive: 9.2 µM [cytotoxic, partial curve, poor fit]
Fc1ccc(-c2csc(-c3nc(-c4ccc(Br)s4)cs3)n2)cc1 | inactive
CCCCCC(=O)N1C[C@@H](n2cc(-c3ccc(F)cc3)nn2)[C@H](O)C[C@@H]1c1ccc(Cl)cc1 | inconclusive: 29.1 µM [cytotoxic, single point]
CC1(c2ccccc2)CC(C)(C)n2c(O)c(C3=NC(=S)NC3=O)c3cccc1c32 (configuration not stated) | inconclusive: 20.6 µM [cytotoxic, single point]
COc1ccc(CCNC(=O)C2CC3Cn4c(nc5ccccc54)C3N2C)cc1 (configuration not stated) | inactive
Cc1cc(C)cc(N2C(N)=NC(N)=NC2c2ccccc2F)c1 (configuration not stated) | inconclusive: 8.2 µM [cytotoxic, partial curve, poor fit]
CC(C)OCCCN1C(=O)c2[nH]nc(-c3ccccc3O)c2C1c1cccc(Cl)c1 (configuration not stated) | inconclusive: 29.1 µM [cytotoxic, single point]
Oc1ccc(N2CCN(c3ccnc4cc(Cl)ccc34)CC2)cc1 | active: 16.4 µM
CN(C)CCCNc1ncnc2oc(-c3ccccc3)c(-c3ccccc3)c12 | inconclusive: 29.1 µM [cytotoxic, single point]
O=c1oc2ccc(Br)cc2cc1-c1nc(-c2ccccc2)no1 | inactive
CC(C)(C)OC(=O)N(Cc1ccccc1)Cc1ccccc1OCc1cccc(NC(=O)c2ccccc2)c1 | inconclusive: 29.1 µM [cytotoxic, single point]
O=Cc1c(Sc2ccccn2)nc2ccccn2c1=O | inconclusive: 25.9 µM [rising, single point]
COCCn1c(SCC(=O)N2CCC(C)CC2)nc2ccccc2c1=O | inactive
Cn1cnc([N+](=O)[O-])c1S(=O)(=O)c1cccc(Cl)c1 | inconclusive: 29.1 µM [cytotoxic, single point]

Nine compounds out of the list, sorted by SMILES length, largest number first:
Structure (SMILES) | Potency
CC(C)(O)CC[C@H](OC(=O)c1ccccc1)[C@](C)(O)[C@H]1CC[C@@]2(O)C3=CC(=O)[C@@H]4C[C@@H](O)[C@H](O)C[C@]4(C)C3CC[C@]12C (some centres not stated) | inactive
COc1ccc2[nH]c3c(c2c1)CCN1C(=O)C(CC(=O)NCC24CC5CC(CC(C5)C2)C4)C[C@H](C(=O)N2CCOCC2)[C@@]31CCC1CCCC1 (some centres not stated) | inconclusive: 20.6 µM [cytotoxic, single point]
O=C(CC1SC(N2CCCC2)=NC1=O)Nc1ccc(C(=O)NCCOc2ccccc2F)cc1 (configuration not stated) | inactive
CC(=O)c1ccc(-c2nnc(CCC(=O)N(C)Cc3c(C)nc4ccccn34)o2)s1 | inconclusive: 16.4 µM [cytotoxic, partial curve, poor fit]
CC(C)OCCCN1C(=O)c2[nH]nc(-c3ccccc3O)c2C1c1cccc(Cl)c1 (configuration not stated) | inconclusive: 29.1 µM [cytotoxic, single point]
O=C(NCCC1CCCCN1S(=O)(=O)c1cccs1)C(=O)Nc1ccc(F)cc1F (configuration not stated) | active: 23.1 µM
Cc1cccc(C2N3CC4(C(C)C)CN2CC(C(C)C)(C3)C4=O)c1 (configuration not stated) | inactive
O=C(Nc1ccc(F)cc1)Nc1ccccc1N1CCCCC1 | inconclusive: 7.31 µM [cytotoxic, partial curve]
O=Cc1c(Sc2ccccn2)nc2ccccn2c1=O | inconclusive: 25.9 µM [rising, single point]
